Results on one molecule are retold here after publication PMC7971226.

Sequences of proteins named here, by UniProt entry; tags and fusion partners are left off.
UniProt Q05397: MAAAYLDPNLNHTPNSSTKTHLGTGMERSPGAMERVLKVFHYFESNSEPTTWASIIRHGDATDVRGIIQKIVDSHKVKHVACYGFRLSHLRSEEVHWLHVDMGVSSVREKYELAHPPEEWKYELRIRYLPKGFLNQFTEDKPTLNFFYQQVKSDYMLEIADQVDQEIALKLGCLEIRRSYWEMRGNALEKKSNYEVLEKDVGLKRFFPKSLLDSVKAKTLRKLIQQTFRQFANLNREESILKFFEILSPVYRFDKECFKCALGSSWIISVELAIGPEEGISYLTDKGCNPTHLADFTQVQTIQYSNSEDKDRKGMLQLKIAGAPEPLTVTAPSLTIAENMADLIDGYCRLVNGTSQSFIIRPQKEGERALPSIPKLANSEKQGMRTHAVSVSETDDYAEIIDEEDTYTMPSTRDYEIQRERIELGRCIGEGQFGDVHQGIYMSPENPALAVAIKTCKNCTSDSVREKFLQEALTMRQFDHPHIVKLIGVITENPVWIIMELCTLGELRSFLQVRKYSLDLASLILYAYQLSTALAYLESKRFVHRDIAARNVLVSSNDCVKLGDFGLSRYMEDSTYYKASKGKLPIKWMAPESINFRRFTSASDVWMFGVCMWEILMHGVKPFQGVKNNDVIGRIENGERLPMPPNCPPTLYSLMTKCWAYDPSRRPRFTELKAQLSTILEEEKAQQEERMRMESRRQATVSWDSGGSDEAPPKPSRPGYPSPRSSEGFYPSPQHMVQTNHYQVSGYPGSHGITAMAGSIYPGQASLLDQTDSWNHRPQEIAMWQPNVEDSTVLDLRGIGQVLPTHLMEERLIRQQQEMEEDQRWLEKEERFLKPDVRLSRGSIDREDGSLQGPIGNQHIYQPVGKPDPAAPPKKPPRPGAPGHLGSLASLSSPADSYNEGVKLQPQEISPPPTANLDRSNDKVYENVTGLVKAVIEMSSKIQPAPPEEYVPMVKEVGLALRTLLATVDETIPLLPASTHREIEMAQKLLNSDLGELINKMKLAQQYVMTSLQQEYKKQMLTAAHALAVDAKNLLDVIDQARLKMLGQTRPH
UniProt P05556: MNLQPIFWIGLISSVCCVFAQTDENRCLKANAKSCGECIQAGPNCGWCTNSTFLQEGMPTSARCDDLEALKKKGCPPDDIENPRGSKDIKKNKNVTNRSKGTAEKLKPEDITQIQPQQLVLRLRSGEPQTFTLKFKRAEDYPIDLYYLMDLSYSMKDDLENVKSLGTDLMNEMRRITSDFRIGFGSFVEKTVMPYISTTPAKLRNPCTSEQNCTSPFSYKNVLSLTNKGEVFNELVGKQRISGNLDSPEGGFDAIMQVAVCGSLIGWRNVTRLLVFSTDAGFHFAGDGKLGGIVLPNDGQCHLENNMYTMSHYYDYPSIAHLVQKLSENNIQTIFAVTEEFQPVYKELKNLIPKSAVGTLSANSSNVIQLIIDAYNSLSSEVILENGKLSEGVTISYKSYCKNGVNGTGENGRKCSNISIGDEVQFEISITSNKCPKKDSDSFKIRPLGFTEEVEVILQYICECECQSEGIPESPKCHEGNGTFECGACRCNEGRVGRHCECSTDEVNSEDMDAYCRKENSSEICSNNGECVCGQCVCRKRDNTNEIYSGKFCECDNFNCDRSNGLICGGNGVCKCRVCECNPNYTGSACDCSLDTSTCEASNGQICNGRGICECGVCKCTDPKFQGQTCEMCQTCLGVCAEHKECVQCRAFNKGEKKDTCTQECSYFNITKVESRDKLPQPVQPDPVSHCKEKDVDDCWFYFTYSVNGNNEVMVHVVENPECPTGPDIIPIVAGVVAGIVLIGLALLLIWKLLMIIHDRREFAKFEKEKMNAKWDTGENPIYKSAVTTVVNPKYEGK

These are yes or no findings as the source states them, for the method shown. Binding seen in cells or lysates may run through a third protein. Some entries that bind do so weakly or less than the wild type.

The target in test [1] is Focal Adhesion Kinase (human (endogenous in SK-N-SH)) (UniProt Q05397). Briefly: co-IP; endogenous proteins of SK-N-SH cells; cells incubated 1 h with rhNTN1 in serum-free DMEM (25 ng/ml for NEO1-FAK; 200 ng/ml in the methods, 100 ng/ml in the results, for NEO1-integrin β1; treatment not told for FAK-integrin β1); extracts in 20 mM Tris pH 7.4, 150 mM NaCl, 1% NP-40; anti-FAK, anti-NEO1 or anti-integrin β1 on Dynabeads protein A, 1 h; Western blot. On the technique in general: A western blot detects proteins with antibodies after separation by electrophoresis.

Test [2] concerns the target integrin β1 (human (endogenous in SK-N-SH)) (UniProt P05556). The test is described as above.

B1: Neogenin-1 (receptor, UniProt Q92859 34-1461)
chain: ARSGSAPQSPGASIRTFTPFYFLVEPVDTLSVRGSSVILNCSAYSEPSPKIEWKKDGTFLNLVSDDRRQLLPDGSLFISNVVHSKHNKPDEGYYQCVATVESLGTIISRTAKLIVAGLPRFTSQPEPSSVYAGNNAILNCEVNADLVPFVRWEQNRQPLLLDDRVIKLPSGMLVISNATEGDGGLYRCVVESGGPPKYSDEVELKVLPDPEVISDLVFLKQPSPLVRVIGQDVVLPCVASGLPTPTIKWMKNEEALDTESSERLVLLAGGSLEISDVTEDDAGTYFCIADNGNETIEAQAELTVQAQPEFLKQPTNIYAHESMDIVFECEVTGKPTPTVKWVKNGDMVIPSDYFKIVKEHNLQVLGLVKSDEGFYQCIAENDVGNAQAGAQLIILEHAPATTGPLPSAPRDVVASLVSTRFIKLTWRTPASDPHGDNLTYSVFYTKEGIARERVENTSHPGEMQVTIQNLMPATVYIFRVMAQNKHGSGESSAPLRVETQPEVQLPGPAPNLRAYAASPTSITVTWETPVSGNGEIQNYKLYYMEKGTDKEQDVDVSSHSYTINGLKKYTEYSFRVVAYNKHGPGVSTPDVAVRTLSDVPSAAPQNLSLEVRNSKSIMIHWQPPAPATQNGQITGYKIRYRKASRKSDVTETLVSGTQLSQLIEGLDRGTEYNFRVAALTINGTGPATDWLSAETFESDLDETRVPEVPSSLHVRPLVTSIVVSWTPPENQNIVVRGYAIGYGIGSPHAQTIKVDYKQRYYTIENLDPSSHYVITLKAFNNVGEGIPLYESAVTRPHTDTSEVDLFVINAPYTPVPDPTPMMPPVGVQASILSHDTIRITWADNSLPKHQKITDSRYYTVRWKTNIPANTKYKNANATTLSYLVTGLKPNTLYEFSVMVTKGRRSSTWSMTAHGTTFELVPTSPPKDVTVVSKEGKPKTIIVNWQPPSEANGKITGYIIYYSTDVNAEIHDWVIEPVVGNRLTHQIQELTLDTPYYFKIQARNSKGMGPMSEAVQFRTPKADSSDKMPNDQASGSGGKGSRLPDLGSDYKPPMSGSNSPHGSPTSPLDSNMLLVIIVSVGVITIVVVVIIAVFCTRRTTSHQKKKRAACKSVNGSHKYKGNSKDVKPPDLWIHHERLELKPIDKSPDPNPIMTDTPIPRNSQDITPVDNSMDSNIHQRRNSYRGHESEDSMSTLAGRRGMRPKMMMPFDSQPPQPVISAHPIHSLDNPHHHFHSSSLASPARSHLYHPGSPWPIGTSMSLSDRANSTESVRNTPSTDTMPASSSQTCCTDHQDPEGATSSSYLASSQEEDSGQSLPTAHVRPSHPLKSFAVPAIPPPGPPTYDPALPSTPLLSQQALNHHIHSVKTASIGTLGRSRPPMPVVVPSAPEVQETTRMLEDSESSYEPDELTKEMAHLEGLMKDLNAITTA
As to B1, the binding entry in test [1] and in test [2] was “binds” in each case.
